Values from PubChem BioAssay AID493246 (Drosophila RNAi Screening Center, 2011)

Screen: 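Genome-wide search for dsRNAs that reduce cell number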 (primary screen)
Cell system: Drosophila Kc and S2R+ cells
Reagents: long dsRNA against Drosophila genes
Measurement: 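Raw, unnormalised count of remaining cells in each well; per-plate z-scores of cell number underlie the calls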
Scale: Kc cell number and S2R+ cell number: higher = more cells remaining
Rule for the call: 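Active when the per-plate z-score of cell number is 3 or more in the direction of fewer cells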
The screen tested about 21,000 reagents; shown is an unselected part of those with a known target gene and a result. Over the whole deposit, 429 (2%) were called active. 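Values are raw and not normalised between plates; calls rest on per-plate z-scores that were not deposited.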 Not stated in the record: the amount of reagent, the time to read-out.

{"gene":"CG15167","DRSC id":"DRSC02468","Kc cell number, rep 1":1.52e6,"Kc cell number, rep 2":1.59e6,"S2R+ cell number, rep 1":1.25e6,"S2R+ cell number, rep 2":2.97e5,"activity call":"inactive"}
{"gene":"tho2","DRSC id":"DRSC00646","Kc cell number, rep 1":9.73e5,"Kc cell number, rep 2":8.73e5,"S2R+ cell number, rep 1":6.47e5,"S2R+ cell number, rep 2":6.22e5,"activity call":"inactive"}
{"gene":"Trc8","DRSC id":"DRSC15437","Kc cell number, rep 1":5.29e5,"S2R+ cell number, rep 1":7.61e5,"activity call":"inactive"}
{"gene":"PolE1","DRSC id":"DRSC16112","Kc cell number, rep 1":1.80e6,"Kc cell number, rep 2":1.74e6,"S2R+ cell number, rep 1":1.33e6,"S2R+ cell number, rep 2":1.36e6,"activity call":"inactive"}
{"gene":"CG15870","DRSC id":"DRSC06588","Kc cell number, rep 1":1.57e6,"Kc cell number, rep 2":1.54e6,"S2R+ cell number, rep 1":1.17e6,"S2R+ cell number, rep 2":1.25e6,"activity call":"inactive"}
{"gene":"CG4594","DRSC id":"DRSC02762","Kc cell number, rep 1":1.27e6,"Kc cell number, rep 2":1.33e6,"S2R+ cell number, rep 1":1.27e6,"S2R+ cell number, rep 2":1.19e6,"activity call":"inactive"}
{"gene":"Khc-73","DRSC id":"DRSC07449","Kc cell number, rep 1":1.36e6,"Kc cell number, rep 2":1.40e6,"S2R+ cell number, rep 1":1.09e6,"S2R+ cell number, rep 2":1.11e6,"activity call":"inactive"}
{"gene":"mRpL3","DRSC id":"DRSC20100","Kc cell number, rep 1":1.44e6,"Kc cell number, rep 2":1.42e6,"S2R+ cell number, rep 1":9.78e5,"S2R+ cell number, rep 2":1.04e6,"activity call":"inactive"}
{"gene":"Lap1","DRSC id":"DRSC07454","Kc cell number, rep 1":1.52e6,"Kc cell number, rep 2":1.55e6,"S2R+ cell number, rep 1":1.04e6,"S2R+ cell number, rep 2":1.23e6,"activity call":"inactive"}
{"gene":"CG11122","DRSC id":"DRSC19382","Kc cell number, rep 1":5.64e5,"S2R+ cell number, rep 1":8.67e5,"activity call":"inactive"}
{"gene":"PGAP3","DRSC id":"DRSC04989","Kc cell number, rep 1":1.28e6,"Kc cell number, rep 2":1.34e6,"S2R+ cell number, rep 1":1.14e6,"S2R+ cell number, rep 2":1.23e6,"activity call":"inactive"}
{"gene":"Gnmt","DRSC id":"DRSC15987","Kc cell number, rep 1":1.56e6,"Kc cell number, rep 2":1.59e6,"S2R+ cell number, rep 1":1.32e6,"S2R+ cell number, rep 2":1.42e6,"activity call":"inactive"}
{"gene":"CG6094","DRSC id":"DRSC02927","Kc cell number, rep 1":1.34e6,"Kc cell number, rep 2":1.09e6,"S2R+ cell number, rep 1":7.88e5,"S2R+ cell number, rep 2":7.58e5,"activity call":"inactive"}
{"gene":"CG3092","DRSC id":"DRSC04336","Kc cell number, rep 1":1.29e6,"Kc cell number, rep 2":1.42e6,"S2R+ cell number, rep 1":1.20e6,"S2R+ cell number, rep 2":1.19e6,"activity call":"inactive"}
{"gene":"CG12126","DRSC id":"DRSC06103","Kc cell number, rep 1":1.88e6,"Kc cell number, rep 2":1.93e6,"S2R+ cell number, rep 1":1.43e6,"S2R+ cell number, rep 2":1.62e6,"activity call":"inactive"}
{"gene":"CG17195","DRSC id":"DRSC15188","Kc cell number, rep 1":1.60e6,"Kc cell number, rep 2":1.54e6,"S2R+ cell number, rep 1":9.61e5,"S2R+ cell number, rep 2":1.10e6,"activity call":"inactive"}
{"gene":"CG34106","DRSC id":"DRSC01578","Kc cell number, rep 1":1.52e6,"Kc cell number, rep 2":1.53e6,"S2R+ cell number, rep 1":9.34e5,"S2R+ cell number, rep 2":1.16e6,"activity call":"inactive"}
{"gene":"Not1","DRSC id":"DRSC06787","Kc cell number, rep 1":1.66e6,"Kc cell number, rep 2":1.74e6,"S2R+ cell number, rep 1":1.08e6,"S2R+ cell number, rep 2":1.28e6,"activity call":"inactive"}
{"gene":"Not1","DRSC id":"DRSC06794","Kc cell number, rep 1":1.17e6,"Kc cell number, rep 2":1.31e6,"S2R+ cell number, rep 1":7.68e5,"S2R+ cell number, rep 2":7.89e5,"activity call":"inactive"}
{"gene":"Dsor1","DRSC id":"DRSC18462","Kc cell number, rep 1":6.38e5,"S2R+ cell number, rep 1":8.45e5,"activity call":"inactive"}
{"gene":"CG12942","DRSC id":"DRSC06253","Kc cell number, rep 1":1.25e6,"Kc cell number, rep 2":1.38e6,"S2R+ cell number, rep 1":7.88e5,"S2R+ cell number, rep 2":9.32e5,"activity call":"inactive"}
{"gene":"Obp83g","DRSC id":"DRSC12269","Kc cell number, rep 1":1.45e6,"Kc cell number, rep 2":1.51e6,"S2R+ cell number, rep 1":1.28e6,"S2R+ cell number, rep 2":1.36e6,"activity call":"inactive"}
{"gene":"CrebA","DRSC id":"DRSC11122","Kc cell number, rep 1":1.42e6,"Kc cell number, rep 2":1.57e6,"S2R+ cell number, rep 1":1.22e6,"S2R+ cell number, rep 2":1.28e6,"activity call":"inactive"}
{"gene":"CG32112","DRSC id":"DRSC09815","Kc cell number, rep 1":1.53e6,"Kc cell number, rep 2":1.52e6,"S2R+ cell number, rep 1":1.14e6,"S2R+ cell number, rep 2":1.30e6,"activity call":"inactive"}
{"gene":"Vps13","DRSC id":"DRSC06817","Kc cell number, rep 1":1.58e6,"Kc cell number, rep 2":1.63e6,"S2R+ cell number, rep 1":1.33e6,"S2R+ cell number, rep 2":1.45e6,"activity call":"inactive"}
{"gene":"eyg","DRSC id":"DRSC11344","Kc cell number, rep 1":7.18e5,"Kc cell number, rep 2":8.75e5,"S2R+ cell number, rep 1":5.20e5,"S2R+ cell number, rep 2":6.39e5,"activity call":"active"}
{"gene":"CG16739","DRSC id":"DRSC06621","Kc cell number, rep 1":1.83e6,"Kc cell number, rep 2":1.83e6,"S2R+ cell number, rep 1":1.10e6,"S2R+ cell number, rep 2":1.38e6,"activity call":"inactive"}
